The record followed here is patent US20180021429A1, “ANTICANCER AGENTS OR ANTIMETASTATIC AGENTS USING FSTL1 AND COMBINATION DRUG THEREOF” (PHARMA FOODS INTERNATIONAL CO., LTD., priority 2015, published 2018).

Amino acid sequences for entries named in this document (tags omitted). A change or cut given only in a name is not applied to a line headed by its entry.
UniProt Q12841: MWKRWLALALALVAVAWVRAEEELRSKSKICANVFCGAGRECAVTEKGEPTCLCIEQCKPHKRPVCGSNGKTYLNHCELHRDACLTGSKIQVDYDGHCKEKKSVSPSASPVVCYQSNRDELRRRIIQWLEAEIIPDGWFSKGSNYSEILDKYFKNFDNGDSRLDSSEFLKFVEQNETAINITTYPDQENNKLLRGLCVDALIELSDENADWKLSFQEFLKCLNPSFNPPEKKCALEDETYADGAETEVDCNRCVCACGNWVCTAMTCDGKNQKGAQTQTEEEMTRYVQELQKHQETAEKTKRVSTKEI

This experiment deals with human FSTL1 (construct not stated) (human) (UniProt Q12841). The experiment in a line: SPR (Biacore T-200), captured antibody. On the technique in general: SPR reads the build-up and loss of mass on a sensor chip optically.

Positions count from the first letter of the chain named. These are yes or no findings as the source states them, for the method shown. Some entries that bind do so weakly or less than the wild type.

B1: anti-FSTL1 antibody clone #10 (chicken-mouse chimeric antibody) (antibody, mouse IgG1, kappa, V domains shown)
VH: AVTLDESGGGLQTPGGALSLVCKASGFFFFRIYDMGWVRQAPGKGLEWVAGIDDYGRYTGYGSAVKGRATISRDNGQSTVRLQLNNLRAEDTGTYYCARGAGTGCNSAGCGAYAGSIDAWGHGTEVIVSS
VL: ASTQPSSVSANPGETVKLTCSGGGSRYGWYQQKSPGSAPVTVIYYNDKRPSDIPSRFSGSKSGSTATLTITGVQAEDEAVYFCGGYDGSRDAGIFGAGTTLTVLG
In the case of B1, the binding result is “binds”.

B2: anti-FSTL1 antibody clone #6-55 (chicken-mouse chimeric antibody) (antibody, mouse IgG1, kappa, V domains shown)
VH: AVTLDESGGGLQTPGGALSLVCKGSGFTFTSVTMQWVRQAPGKGLEWVASVCSGSSTYYAPAVKGRATISRDNGQSTVRLQLSNLRPEDTGTYYCAKIAGRARWSCTSAAYNIDAWGHGTEVIVSS
VL: ASTQPSSVSAIPGETVKITCSGGGNNYGWYQQRSPGSAPVTVIYYNDNRPSNIPSRFSGSTSGSTSTLTITGVQADDEAIYYCGSWDSNTDSGIFGAGTTLTVLG
For the molecule B2, the binding result is recorded as “binds”.

B3: anti-FSTL1 antibody clone #7-34 (chicken-mouse chimeric antibody) (antibody, mouse IgG1, kappa, V domains shown)
VH: AVTLDESGGGLQTPGGGLSLVCKASGFTFSSVTMQWVRQAPGKGLEWVASICSGSSTYYGPAVKGRATISRDNGQNTVRLQLNNLRAEDTATYYCAKIVGRGRWSCTSAAYNIDAWGHGTEVIVSS
VL: B2 VL with I11N, R33K, D47N, D76E, I80V, W86Y, D87E, S88G, N89S
Turning to B3, the binding entry is “binds”.

B4: anti-FSTL1 antibody clone #33 (chicken-mouse chimeric antibody) (antibody, mouse IgG1, kappa, V domains shown)
VH: AVTLDESGGGLQTPGGGLSLVCKASGFTFSSFNMNWVRQAPGKGLEYVAEISGTGSSTYYGSAVKGRATISRDNGQSTVRLQLNNLRAEDTATYFCARGDGAYSIDAWGHGTEVIVSS
VL: ASTQPSSVSANPGETVEITCSGDSSYYGWFQQKSPGSAPVTVIYDNTNRPSDIPSRFSGSKSGSTATLTITGVRAEDEAVYYCGGYDSSTYDGIFGAGTTLTVLG
In the case of B4, the binding entry is reported as “binds”.

B5: anti-FSTL1 antibody clone #13 (chicken-mouse chimeric antibody) (antibody, mouse IgG1, kappa, V domains shown)
VH: B3 VH
VL: ASTQPSSVSANPGETVKITCSGGGNNYGWYQQKSPGSAPVTVIYNNNNRPSNIPSRFSGSKSGSTNTLTITGVQAEDEAVYYCGSYDSSSDSGIFGAGTTLTVLG
Consider B5, for which the binding entry is reported as “binds”.
